Reference: PubChem BioAssay AID180 (DTP/NCI, 2004)
The list does not hold the whole screen: it is rich in T/C values a quarter to a half above the control, in often repeated tests (any T/C) and in doses without a T/C. Further doses and runs are listed elsewhere. T/C is the treated group as % of the vehicle group. Schedules are NCI's codes, taken here to give the interval after Q, in days (D) or hours (H), and the number of doses after X. Some T/C values are followed by the survivors on the day toxicity was checked, most often the fifth; where none is given, no animal had died by that day. Some entries give survivors of the animals treated and no T/C: the source files T/C as zero there, which appears to mark a toxic dose or a test without result, not a measured value. Counts of survivors are from the toxicity check (mostly the fifth day) where no day follows; animals may have died later. Some entries were tested several times; the results are listed from low to high.

System: BDF1 mice, Adenocarcinoma 755 s.c., tumor weight T/C
Experiment: NCI In Vivo Anticancer Drug Screen. Data for tumor model Adenocarcinoma 755 (subcutaneous) in B6D2F1 (BDF1) mice
Conditions: T/C endpoint: mean tumor weight, higher T/C = larger tumour; for T/C: evaluated on day 12
Procedure, shortened: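 Transplantable tumor implanted; mice dosed with compound or vehicle; survival or tumor size recorded; ratio of treated to vehicle control reported.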

[1] = dose: 50.0 mg/kg/injection, schedule: Q01DX011 (ip), vehicle: carboxymethylcellulose (CMC)
[2] = dose: 60.0 mg/kg/injection, schedule: Q01DX011 (ip), vehicle: carboxymethylcellulose (CMC)
[3] = dose: 120.0 mg/kg/injection, schedule: Q01DX011 (ip), vehicle: carboxymethylcellulose (CMC)
[4] = dose: 240.0 mg/kg/injection, schedule: Q01DX011 (ip), vehicle: carboxymethylcellulose (CMC)
[5] = dose: 75.0 mg/kg/injection, schedule: Q01DX011 (ip), vehicle: carboxymethylcellulose (CMC)
[6] = dose: 62.0 mg/kg/injection, schedule: Q01DX011 (ip), vehicle: methylcellulose (MC)
[7] = dose: 10.0 mg/kg/injection, schedule: Q01DX011 (sc), vehicle: steroid suspending solution
[8] = dose: 225.0 mg/kg/injection, schedule: Q01DX011 (ip), vehicle: methylcellulose (MC)

With `CCCCCCCCCCCCCCCCCCNC` the T/C (dose: 7.0 mg/kg/injection, schedule: Q01DX011 (ip), vehicle: carboxymethylcellulose (CMC)) was 125 % of control [9 of 10 alive], the survivor count (dose: 28.0 mg/kg/injection, schedule: Q01DX011 (ip), vehicle: carboxymethylcellulose (CMC)) was 6 of 10 and the survivor count (dose: 56.0 mg/kg/injection, schedule: Q01DX011 (ip), vehicle: carboxymethylcellulose (CMC)) was 5 of 10.

For `O=C(O)/C=C\C(=O)Nc1nccs1`, the survivor count [1] was 6 of 10 and the survivor count (dose: 400.0 mg/kg/injection, schedule: Q01DX011 (ip), vehicle: carboxymethylcellulose (CMC)) was 4 of 10.

With `Cc1cc(NC(=O)c2ccc(C(=O)Nc3ccc(N=Nc4cc(S(=O)(=O)O)c5cccc(S(=O)(=O)O)c5c4)c(C)c3)cc2)ccc1N=Nc1cc(S(=O)(=O)O)c2cccc(S(=O)(=O)O)c2c1` the survivor count [2] was 4 of 10, the survivor count [3] was 2 of 10 and the survivor count [4] was 1 of 10.

`CC(C)CNS(=O)(=O)c1ncnc2nc[nH]c12` was tested, and the survivor count [5] was 3 of 10, the survivor count (dose: 150.0 mg/kg/injection, schedule: Q01DX011 (ip), vehicle: carboxymethylcellulose (CMC)) was 0 of 10 and the survivor count (dose: 150.0 mg/kg/injection, schedule: Q01DX011 (ip), vehicle: other) was 6 of 10.

With `Nc1[nH]c(=O)[nH]c(=O)c1C(=O)CCl` the survivor count [2] was 5 of 10, the survivor count [3] was 1 of 10 and the survivor count [4] was 0 of 10.

`Clc1ccc(CNc2ncnc3c2cnn3C2CCCCO2)cc1Cl` (stereo unspecified) was tested, and the T/C (dose: 50.0 mg/kg/injection, schedule: Q01DX011 (ip), vehicle: methylcellulose (MC)) was 137 % of control.

For `Cc1cnc(SCc2ccccc2)[nH]c1=O`, the T/C [6] was 131 % of control.

`CS(=O)(=O)OCCC(=O)NCNC(=O)CCOS(C)(=O)=O` was tested, and the T/C (dose: 6.0 mg/kg/injection, schedule: Q01DX011 (ip), vehicle: methylcellulose (MC)) was 127 % of control.

With `CCCc1c(Cl)nc(Cl)nc1Cl` the T/C [5] was 132 % of control.

For `O=C1C(NC(=O)C2CCCCC2)=C(N2CC2)C(=O)C(NC(=O)C2CCCCC2)=C1N1CC1`, the survivor count (dose: 44.0 mg/kg/injection, schedule: Q01DX011 (ip), vehicle: methylcellulose (MC)) was 6 of 10, the survivor count (dose: 87.5 mg/kg/injection, schedule: Q01DX011 (ip), vehicle: methylcellulose (MC)) was 4 of 10 and the survivor count (dose: 350.0 mg/kg/injection, schedule: Q01DX011 (ip), vehicle: carboxymethylcellulose (CMC)) was 3 of 10 and 6 of 10. For the same compound, the survivor count (dose: 350.0 mg/kg/injection, schedule: Q01DX011 (ip), vehicle: other) was 0 of 10.

With `[I][Hg][CH2]C1OC2CCC1C[CH]2[Hg][I]` (stereo unspecified) the survivor count (dose: 12.0 mg/kg/injection, schedule: Q01DX011 (ip), vehicle: carboxymethylcellulose (CMC)) was 4 of 10, the survivor count (dose: 25.0 mg/kg/injection, schedule: Q01DX011 (ip), vehicle: carboxymethylcellulose (CMC)) was 0 of 10 and the survivor count [1] was 0 of 10. The survivor count (dose: 100.0 mg/kg/injection, schedule: Q01DX011 (ip), vehicle: carboxymethylcellulose (CMC)) was 0 of 10 and the survivor count (dose: 200.0 mg/kg/injection, schedule: Q01DX011 (ip), vehicle: carboxymethylcellulose (CMC)) was 0 of 10.

With `CSc1nc(Cl)c2cc[nH]c2n1` the T/C [2] was 127 % of control [9 of 10 alive].

In the case of `COc1ccc2c3c([nH]c2c1)[C@H]1C[C@H]2[C@H](C[C@@H](O)[C@H](OC)[C@H]2CO)CN1CC3`, the T/C (dose: 0.25 mg/kg/injection, schedule: Q01DX011 (ip), vehicle: saline) is reported as 132 % of control.

`CN(C)c1ccc2nc3ccc(=[N+](C)C)cc-3sc2c1` was tested, and the survivor count (dose: 23.05 mg/kg/injection, schedule: Q01DX011 (ip), vehicle: carboxymethylcellulose (CMC)) was 6 of 10, the survivor count (dose: 41.9 mg/kg/injection, schedule: Q01DX011 (ip), vehicle: carboxymethylcellulose (CMC)) was 5 of 10 and the T/C (dose: 42.0 mg/kg/injection, schedule: Q01DX011 (ip), vehicle: carboxymethylcellulose (CMC)) was 133 % of control [9 of 10 alive].

In the case of `CNc1ncnc2c1ncn2C1CC(O)C(CO)O1` (stereo unspecified), the T/C (dose: 30.0 mg/kg/injection, schedule: Q01DX011 (ip), vehicle: saline) is reported as 126 % of control and the T/C (dose: 240.0 mg/kg/injection, schedule: Q01DX011 (ip), vehicle: saline) is reported as 145 % of control.

In the case of `CN(C)[C@@H]1C(=O)C(C(=O)NCc2nc3[nH]cnc(=S)c3[nH]2)=C(O)[C@@]2(O)C(=O)C3=C(O)c4c(O)cccc4[C@@](C)(O)[C@H]3C[C@@H]12`, the survivor count (dose: 448.0 mg/kg/injection, schedule: Q01DX011 (ip), vehicle: carboxymethylcellulose (CMC)) is reported as 0 of 10.

In the case of `C[C@]12CCCC[C@@H]1CC[C@@H]1[C@@H]2[C@@](C)(O)C[C@@]2(C)[C@H]1CC[C@]2(C)O`, the T/C [7] is reported as 132 % of control and the T/C (dose: 100.0 mg/kg/injection, schedule: Q01DX011 (sc), vehicle: steroid suspending solution) is reported as 128 % of control.

For `CCC1OCC(C(Cl)CCl)O1` (stereo unspecified), the survivor count (dose: 450.0 mg/kg/injection, schedule: Q01DX011 (ip), vehicle: methylcellulose (MC)) was 5 of 10.

With `CN(C)c1nc(N)c2ncn(C3OC(CO)C(O)C3O)c2n1` (stereo unspecified) the T/C [6] was 135 % of control.

For `NC(=O)CCl`, the survivor count (dose: 12.5 mg/kg/injection, schedule: Q01DX011 (ip), vehicle: other) was 2 of 10 and the survivor count (dose: 100.0 mg/kg/injection, schedule: Q01DX011 (ip), vehicle: other) was 1 of 10.

For `ClCCn1cnc2c(SCc3ccccc3Cl)ncnc21`, the T/C (dose: 1.0 mg/kg/injection, schedule: Q01DX011 (oral), vehicle: other) was 145 % of control.

In the case of `CC[C@H](c1ccc(O)cc1)[C@@H](CC)c1ccc(O)cc1`, the survivor count (dose: 220.0 mg/kg/injection, schedule: Q01DX011 (sc), vehicle: steroid suspending solution) is reported as 2 of 10.

`O=c1[nH]c2cnc(Cl)nc2[nH]1` was tested, and the T/C [4] was 143 % of control and the survivor count (dose: 300.0 mg/kg/injection, schedule: Q01DX011 (ip), vehicle: carboxymethylcellulose (CMC)) was 2 of 10.

`O=C(OCC1OC(n2cnc3c(=O)[nH]cnc32)CC1OC(=O)c1ccccc1)c1ccccc1` (stereo unspecified) was tested, and the T/C (dose: 30.0 mg/kg/injection, schedule: Q01DX011 (ip), vehicle: carboxymethylcellulose (CMC)) was 137 % of control and the T/C [4] was 132 % of control.

In the case of `CCOC(=O)/C(C)=N\Nc1cc(Cl)nc(N)n1`, the T/C (dose: 56.0 mg/kg/injection, schedule: Q01DX011 (ip), vehicle: methylcellulose (MC)) is reported as 149 % of control and the T/C [8] is reported as 137 % of control.

With `COC1C(OC(=O)/C=C/C=C/C=C/C=C/C(=O)O)CCC2(CO2)C1C1(C)OC1CC=C(C)C` (stereo unspecified) the survivor count (dose: 80.0 mg/kg/injection, schedule: Q01DX011 (ip), vehicle: methylcellulose (MC)) was 3 of 10.

`CC(C)CN(C)/N=N/c1nc[nH]c1C(N)=O` was tested, and the survivor count [1] was 6 of 10.

With `Cn1c(=O)c2[nH]c(/N=N/N3CCCCC3)nc2n(C)c1=O` the survivor count [8] was 4 of 10.

`C[C@]12CC[C@H](O)C[C@H]1CC[C@@H]1[C@@H]2CC[C@]2(C)[C@@H](C3=CC(=O)OC3)[C@@H](O)C[C@]12O` was tested, and the T/C [7] was 127 % of control.

For `Nc1nc(Cl)cc(Nc2ccc(CCO)cc2)n1`, the survivor count (dose: 31.0 mg/kg/injection, schedule: Q01DX011 (ip), vehicle: methylcellulose (MC)) was 6 of 10 and the survivor count (dose: 250.0 mg/kg/injection, schedule: Q01DX011 (ip), vehicle: methylcellulose (MC)) was 4 of 10.

With `Nc1nc(N)c2cnnn2n1` the survivor count (dose: 225.0 mg/kg/injection, schedule: Q01DX011 (ip), vehicle: saline) was 1 of 10.
